Results are given in words; binding and its absence hold for the method and conditions named. Binding seen in cells or lysates may run through a third protein. Some entries that bind do so weakly or less than the wild type.

Amino acid sequences for entries named in this document (tags omitted). Residues count along the entry.
UniProt P30405, residues 30-207: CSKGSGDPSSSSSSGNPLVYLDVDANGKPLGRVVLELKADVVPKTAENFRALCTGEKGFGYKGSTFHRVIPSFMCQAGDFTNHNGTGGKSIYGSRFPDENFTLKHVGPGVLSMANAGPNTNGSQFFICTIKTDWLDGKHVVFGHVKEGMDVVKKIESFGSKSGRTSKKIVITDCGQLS

For one molecule, binding results are on record in article PMC7045607.

The target of the assay is cyclophilin-D (human (endogenous in T-HESC)) (UniProt P30405). The assay can be described thus: co-IP; mitochondrial immunoprecipitation (Mito-IP): mitochondrial fraction lysates of T-HESC cells (300 ug per treatment), pre-cleared, incubated with anti-CypD antibody, captured by anti-IgG; CypD-bound ANT1 and p53 by Western blotting; cells after OGD 4 h and re-oxygenation (OGDR) or Mock, with lv-pre-miR-941, lv-miRC, antagomiR-941 or antaC.

B1: adenine nucleotide translocator type 1 (protein, UniProt P12235 1-298)
chain: MGDHAWSFLKDFLAGGVAAAVSKTAVAPIERVKLLLQVQHASKQISAEKQYKGIIDCVVRIPKEQGFLSFWRGNLANVIRYFPTQALNFAFKDKYKQLFLGGVDRHKQFWRYFAGNLASGGAAGATSLCFVYPLDFARTRLAADVGKGAAQREFHGLGDCIIKIFKSDGLRGLYQGFNVSVQGIIIYRAAYFGVYDTAKGMLPDPKNVHIFVSWMIAQSVTAVAGLVSYPFDTVRRRMMMQSGRKGADIMYTGTVDCWRKIAKDEGAKAFFKGAWSNVLRGMGGAFVLVLYDEIKKYV
As to B1, the binding entry was “binds”.
